PMC10261145, “Ceramide sensing by human SPT-ORMDL complex for establishing sphingolipid homeostasis” (Nature Communications, 2023)
These are yes or no findings as the source states them, for the method shown. Some entries that bind do so weakly or less than the wild type.

T1: serine palmitoyltransferase (SPT) complex (SPTLC1, SPTLC2, SPTssa) (human) (UniProt O15269+O15270+Q969W0)
T1 sequence 1: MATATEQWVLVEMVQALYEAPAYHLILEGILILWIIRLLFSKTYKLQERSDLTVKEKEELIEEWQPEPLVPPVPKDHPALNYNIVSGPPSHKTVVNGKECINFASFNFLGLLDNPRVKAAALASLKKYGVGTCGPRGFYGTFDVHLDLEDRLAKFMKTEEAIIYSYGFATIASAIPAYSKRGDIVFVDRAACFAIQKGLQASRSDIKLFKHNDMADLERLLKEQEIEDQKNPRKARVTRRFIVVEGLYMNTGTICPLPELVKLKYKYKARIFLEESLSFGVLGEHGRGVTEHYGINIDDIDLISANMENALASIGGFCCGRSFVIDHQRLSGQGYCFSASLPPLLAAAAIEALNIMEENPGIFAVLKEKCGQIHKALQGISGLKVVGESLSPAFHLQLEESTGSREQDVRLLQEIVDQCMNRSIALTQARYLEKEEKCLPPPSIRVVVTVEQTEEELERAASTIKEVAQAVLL
T1 sequence 2: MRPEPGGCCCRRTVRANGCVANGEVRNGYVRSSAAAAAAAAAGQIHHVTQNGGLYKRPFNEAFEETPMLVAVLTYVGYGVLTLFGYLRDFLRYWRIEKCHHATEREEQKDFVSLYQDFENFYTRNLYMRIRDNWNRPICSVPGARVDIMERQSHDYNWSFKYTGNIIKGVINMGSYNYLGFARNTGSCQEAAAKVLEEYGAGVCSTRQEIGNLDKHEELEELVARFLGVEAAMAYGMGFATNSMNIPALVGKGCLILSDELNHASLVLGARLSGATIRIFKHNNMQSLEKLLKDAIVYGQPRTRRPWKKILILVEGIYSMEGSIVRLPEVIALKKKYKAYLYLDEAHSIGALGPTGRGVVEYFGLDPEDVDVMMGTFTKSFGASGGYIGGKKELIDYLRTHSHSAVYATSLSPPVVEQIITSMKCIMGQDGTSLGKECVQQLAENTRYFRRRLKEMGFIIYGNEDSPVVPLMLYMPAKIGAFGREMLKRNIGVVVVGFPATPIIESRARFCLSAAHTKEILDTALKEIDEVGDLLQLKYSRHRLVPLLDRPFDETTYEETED
T1 sequence 3: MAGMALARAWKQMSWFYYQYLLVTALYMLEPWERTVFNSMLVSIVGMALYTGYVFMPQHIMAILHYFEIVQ


Biological target: T1, serine palmitoyltransferase (SPT) complex (SPTLC1, SPTLC2, SPTssa) (human)
Experiment: co-purification (anti-Flag affinity resin, then SEC; Coomassie-stained SDS-PAGE); subunits co-expressed in HEK293F; membranes solubilized with 1% GDN; anti-Flag G1 resin, elution with Flag peptide, Superose 6 in 25 mM HEPES pH 7.5, 150 mM NaCl, 0.01% GDN; which subunit carries the Flag tag is not stated

Row | Binder | binding
1 | ORMDL3-N13A (natural protein, human, UniProt Q8N138 1-153, looked up, ORMDL3, human, full-length cDNA with N13A; also called ORMDL3-N13A mutant; source: HEK293F, transiently co-transfected with the SPT subunits, purified as a complex (anti-Flag resin, SEC, GDN)) MNVGTAHSEVNPATRVMNSRGIWLSYVLAIGLLHIVLLSIPFVSVPVVWTLTNLIHNMGMYIFLHTVKGTPFETPDQGKARLLTHWEQMDYGVQFTASRKFLTITPIVLYFLTSFYTKYDQIHFVLNTVSLMSVLIPKLPQLHGVRIFGINKY | binds
2 | ORMDL3-ΔN17 (lacks the N-terminal 16 residues) (domain or fragment, UniProt Q8N138 17-153) MNSRGIWLSYVLAIGLLHIVLLSIPFVSVPVVWTLTNLIHNMGMYIFLHTVKGTPFETPDQGKARLLTHWEQMDYGVQFTASRKFLTITPIVLYFLTSFYTKYDQIHFVLNTVSLMSVLIPKLPQLHGVRIFGINKY | binds
3 | ORMDL2 (protein, UniProt Q53FV1 1-153) MNVGVAHSEVNPNTRVMNSRGIWLAYIILVGLLHMVLLSIPFFSIPVVWTLTNVIHNLATYVFLHTVKGTPFETPDQGKARLLTHWEQMDYGLQFTSSRKFLSISPIVLYLLASFYTKYDAAHFLINTASLLSVLLPKLPQFHGVRVFGINKY | binds

Continued, values first:

Row | binding | Binder
4 | binds | ORMDL3-F63P (protein, UniProt Q8N138 1-153) MNVGTAHSEVNPNTRVMNSRGIWLSYVLAIGLLHIVLLSIPFVSVPVVWTLTNLIHNMGMYIPLHTVKGTPFETPDQGKARLLTHWEQMDYGVQFTASRKFLTITPIVLYFLTSFYTKYDQIHFVLNTVSLMSVLIPKLPQLHGVRIFGINKY
5 | binds | ORMDL1 (protein, UniProt Q9P0S3 1-153) MNVGVAHSEVNPNTRVMNSRGMWLTYALGVGLLHIVLLSIPFFSVPVAWTLTNIIHNLGMYVFLHAVKGTPFETPDQGKARLLTHWEQLDYGVQFTSSRKFFTISPIILYFLASFYTKYDPTHFILNTASLLSVLIPKMPQLHGVRIFGINKY
